Measurements reported in PubChem BioAssay AID652243 (Drosophila RNAi Screening Center, 2013)

Purpose: 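Knock-downs that decrease or increase androgen receptor reporter signal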 (primary screen)
System: Drosophila S2R+ cells
Reagent: long dsRNA against Drosophila genes
Timing: 72 h (48 h, then 24 h hormone)
Challenge: synthetic androgen R1881 at 10 nM for 24 h
Detection: 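Firefly light from an androgen-responsive reporter and Renilla control light per well, raw and unnormalised, for each of two replicates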
Direction: firefly reporter light: higher = more light from androgen-responsive reporter; Renilla control light: higher = more constitutive control signal (cell number, transfection)
Hit rule: 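Hit when the log firefly-to-Renilla ratio dropped or increased by a fixed fold versus the mean of GFP or LacZ controls across duplicate plates; lowering cut given as 1.5 and as 3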
Calls: active = hit: reporter lowered or raised; inactive = no hit
The deposit covers about 24,000 reagents; below is a random part of those with a known target gene and a result. Of all reagents, 246 (1%) were called active. 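Plates not normalised; calls are printed but the firefly/Renilla ratio behind them is not deposited; fold cut for lowering reported inconsistently.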 The raw values are shown without normalisation. A plus sign joins genes that one reagent is predicted to hit. The record does not give: the amount of reagent.

CG9917 [DRSC20218]
- firefly reporter light, replicate 1: 1.10e5
- firefly reporter light, replicate 2: 1.22e5
- Renilla control light, replicate 1: 5.86e5
- Renilla control light, replicate 2: 7.77e5
- Outcome: inactive

PIG-Q (Phosphatidylinositol glycan anchor biosynthesis class Q) [DRSC19138]
- firefly reporter light, replicate 1: 2.76e5
- firefly reporter light, replicate 2: 3.11e5
- Renilla control light, replicate 1: 3.09e5
- Renilla control light, replicate 2: 2.82e5
- Outcome: inactive

Lime (Linking immunity and metabolism) [DRSC06752]
- firefly reporter light, replicate 1: 4.28e5
- firefly reporter light, replicate 2: 3.68e5
- Renilla control light, replicate 1: 3.00e6
- Renilla control light, replicate 2: 2.74e6
- Outcome: inactive

CG9664 [DRSC00725]
- firefly reporter light, replicate 1: 6.75e5
- firefly reporter light, replicate 2: 6.86e5
- Renilla control light, replicate 1: 2.28e6
- Renilla control light, replicate 2: 2.08e6
- Outcome: inactive

Cpsf100 (Cleavage and polyadenylation specificity factor 100) [DRSC14146]
- firefly reporter light, replicate 1: 1.39e5
- firefly reporter light, replicate 2: 1.03e5
- Renilla control light, replicate 1: 1.01e6
- Renilla control light, replicate 2: 7.04e5
- Outcome: inactive

Cpsf100 (Cleavage and polyadenylation specificity factor 100) [DRSC28396]
- firefly reporter light, replicate 1: 3.79e5
- firefly reporter light, replicate 2: 8.69e5
- Renilla control light, replicate 1: 6.45e5
- Renilla control light, replicate 2: 1.49e6
- Outcome: inactive

CG13088 [DRSC02192]
- firefly reporter light, replicate 1: 2.39e5
- firefly reporter light, replicate 2: 2.05e5
- Renilla control light, replicate 1: 2.06e6
- Renilla control light, replicate 2: 1.93e6
- Outcome: inactive

CG8051 [DRSC20077]
- firefly reporter light, replicate 1: 2.04e5
- firefly reporter light, replicate 2: 1.67e5
- Renilla control light, replicate 1: 6.61e5
- Renilla control light, replicate 2: 5.32e5
- Outcome: inactive

CG8051 [DRSC26855]
- firefly reporter light, replicate 1: 6.37e5
- firefly reporter light, replicate 2: 4.55e5
- Renilla control light, replicate 1: 8.64e5
- Renilla control light, replicate 2: 5.50e5
- Outcome: inactive

CG31468 [DRSC13637]
- firefly reporter light, replicate 1: 63347
- firefly reporter light, replicate 2: 56943
- Renilla control light, replicate 1: 52546
- Renilla control light, replicate 2: 1.06e5
- Outcome: inactive

CG12831 [DRSC06179]
- firefly reporter light, replicate 1: 2.17e5
- firefly reporter light, replicate 2: 2.67e5
- Renilla control light, replicate 1: 2.03e6
- Renilla control light, replicate 2: 1.51e6
- Outcome: inactive

CG31342 [DRSC15349]
- firefly reporter light, replicate 1: 18754
- firefly reporter light, replicate 2: 17741
- Renilla control light, replicate 1: 1.96e5
- Renilla control light, replicate 2: 1.73e5
- Outcome: inactive

CG31342 [DRSC16246]
- firefly reporter light, replicate 1: 1.25e5
- firefly reporter light, replicate 2: 1.02e5
- Renilla control light, replicate 1: 1.92e6
- Renilla control light, replicate 2: 1.58e6
- Outcome: inactive

CG9114 [DRSC20155]
- firefly reporter light, replicate 1: 5.59e5
- firefly reporter light, replicate 2: 7.06e5
- Renilla control light, replicate 1: 4.58e6
- Renilla control light, replicate 2: 5.04e6
- Outcome: inactive

Hsp70Bb + Hsp70Ba + Hsp70Bc + 1 more [DRSC21247]
- firefly reporter light, replicate 1: 88763
- firefly reporter light, replicate 2: 71248
- Renilla control light, replicate 1: 3.06e5
- Renilla control light, replicate 2: 2.24e5
- Outcome: inactive

Hsp70Bb + Hsp70Ba + Hsp70Bc + 1 more [DRSC21248]
- firefly reporter light, replicate 1: 97065
- firefly reporter light, replicate 2: 1.05e5
- Renilla control light, replicate 1: 2.70e5
- Renilla control light, replicate 2: 1.92e5
- Outcome: inactive

Tom40 (Translocase of outer membrane 40) [DRSC18796]
- firefly reporter light, replicate 1: 2.50e5
- firefly reporter light, replicate 2: 3.43e5
- Renilla control light, replicate 1: 2.35e6
- Renilla control light, replicate 2: 2.98e6
- Outcome: inactive

p38a (p38a MAP kinase) [DRSC16743]
- firefly reporter light, replicate 1: 1.50e5
- firefly reporter light, replicate 2: 2.58e5
- Renilla control light, replicate 1: 2.80e6
- Renilla control light, replicate 2: 2.28e6
- Outcome: active

p38a (p38a MAP kinase) [DRSC36706]
- Outcome: inactive

p38a (p38a MAP kinase) [DRSC36707]
- Outcome: inactive

CG14113 [DRSC10116]
- firefly reporter light, replicate 1: 5.69e5
- firefly reporter light, replicate 2: 4.60e5
- Renilla control light, replicate 1: 3.03e6
- Renilla control light, replicate 2: 2.69e6
- Outcome: inactive

Already shown: an excerpt of the list.
p38a (p38a MAP kinase) [DRSC36707]
- Outcome: inactive

CG14113 [DRSC10116]
- firefly reporter light, replicate 1: 5.69e5
- firefly reporter light, replicate 2: 4.60e5
- Renilla control light, replicate 1: 3.03e6
- Renilla control light, replicate 2: 2.69e6
- Outcome: inactive
